PubChem BioAssay AID504786 – Drosophila RNAi Screening Center | 2011
The screen tested about 21,000 reagents; this is an unselected part of those with a known target gene and a result. 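Primary screen; positive scores mean lost reporter signal, so the sign may be inverted from the usual convention.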 The numbers tell different reagents against one gene apart. Names joined by + are all predicted targets of the reagent.

Screen: 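Positive regulators of HIF-driven reporter output in Drosophila cells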 (primary screen)
System: Drosophila S2 cells with a stable HIF luciferase reporter
Reagent: long dsRNA against Drosophila genes, about 0.2 µg dsRNA per well of a 384-well plate
Duration: three days of knock-down, then 20 h of DFO before reading
Conditions: desferrioxamine (DFO) at 100 µM, an iron chelator that mimics hypoxia, for 20 h
Read-out: 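HIF reporter luminescence in cells given 100 µM DFO for 20 h, using the mouse ldh-a hypoxia-response element, scored as per-plate z-scores; higher means greater loss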
Reading the numbers: z-score: higher = stronger loss of HIF reporter signal

gene knocked down | reagent | z-score, replicate 1 | z-score, replicate 2
CG14613 | 1 | -0.3 | -0.5
Map60 (Microtubule-associated protein 60) | 1 | -0.3 | -0.3
CG42564 | 1 | 0 | 0.2
Dhfr (Dihydrofolate reductase) | 1 | -0.3 | 0.2
EcR (Ecdysone receptor) | 1 | -0.4 | 1.1
EcR (Ecdysone receptor) | 2 | 0.5 | 0.8
CG15252 | 1 | -0.2 | -0.9
sra (sarah) | 1 | -0.2 | 0
CG13365 | 1 | -0.3 | -0.5
CG9752 | 1 | -0.3 | -0.2
CG31086 + CG31323 | 1 | -0.3 | 0.7
janB (janus B) | 1 | -0.4 | -0.2
CG13359 | 1 | -0.3 | -0.7
Der-1 (Derlin-1) | 1 | 0.9 | 0.6
Cypl (Cyclophilin-like) | 1 | -0.3 | 0
Regnase-1 (Regnase 1) | 1 | -0.3 | -0.4
CG44085 | 1 | -0.4 | 3.5
CG10600 | 1 | -0.4 | -0.2
Tsp26A (Tetraspanin 26A) | 1 | -0.3 | -0.3
CG34327 | 1 | 0 | 0.4
CG10352 | 1 | -0.2 | -0.3
sPLA2 (secretory Phospholipase A2) | 1 | -0.3 | -0.6
CG33225 | 1 | 0.2 | 0.1
Unc-115b + p24-2 + Unc-115a | 1 | -0.2 | -0.4
CG5112 | 1 | -0.2 | -0.4
CG10589 | 1 | 0 | -0.2
eIF3j (eukaryotic translation initiation factor 3 subunit j) | 1 | 1.3 | 0.5
miple2 (midkine and pleiotrophin 2) | 1 | -0.2 | -0.1
zen (zerknullt) | 1 | -0.4 | -0.4
CG33958 | 1 | -0.3 | 1.3
CG33958 | 2 | -0.4 | -0.7
shd (shade) | 1 | 0.2 | 0.1
CG42557 + CG42558 | 1 | -0.4 | 0
CG42557 + CG42558 | 2 | -0.2 | 1
